Test results: patent US20140350088
The exact form of at least one protein or probe is not confirmed. A weaker result is weaker than the reference pair of the same experiment. For part of these data: Tags and fusion partners may be left off the protein sequences shown.

By UniProt entry, the sequences of proteins in these tests, tags left out. Residues count along the entry.
UniProt P01275, 53-81: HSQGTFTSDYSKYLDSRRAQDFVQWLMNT

What was measured:
human C5a (Homo sapiens) = biological target: T1, human C5a (Homo sapiens) (UniProt P01031); assay: SPR; settings: L-RNA, purified recombinant protein, protein details: Sigma Aldrich
T1 sequence: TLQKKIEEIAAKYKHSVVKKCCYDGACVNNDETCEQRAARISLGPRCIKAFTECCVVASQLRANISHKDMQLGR

[1] = biological target: biotinylated human glucagon (Homo sapiens) (UniProt P01275); assay: SPR; settings: synthetic protein, mirror-image nucleic acid

Question: Does “GCCUGAUGUGGUGGUGAAGGGUUGUUGGGUGUCGACGCACAGGC [NOX-D19001-D30-40]” bind (human C5a (Homo sapiens); dU at 30, dC at 40, better than single substitutions, amine-coupled for SPR, mirror-image nucleic acid, variant of NOX-D19001)?
Answer: binds

Question: Does “GCCUGAUGUGGUGGUGAAGGGUUGUUGGGUGUCGACGCACAGGC [NOX-D19001-D28]” bind (human C5a (Homo sapiens); 2'-deoxy at 28, reduced or lost vs parent, 37 C, amine coupled to CM5 chip, synthetic backbone, mirror-image nucleic acid)?
Answer: binds more weakly

Question: Does “GCCUGAUGUGGUGGUGAAGGGUUGUUGGGUGUCGACGCACAGGC [NOX-D19001-D09-17-30-32-40]” bind (human C5a (Homo sapiens); dU at 9, 30, 32, dA at 17, dC at 40, better than D09-30-32-40, amine-coupled for SPR, mirror-image nucleic acid, variant of NOX-D19001)?
Answer: binds

Question: Does “GCCUGAUGUGGUGGUGAAGGGUUGUUGGGUGUCGACGCACAGGC [NOX-D19001-D44]” bind (human C5a (Homo sapiens); 2'-deoxy at 44, listed as unchanged, also stated as improved, 37 C, amine coupled to CM5 chip, synthetic backbone, mirror-image nucleic acid)?
Answer: binds

Question: Does “GCCUGAUGUGGUGGUGAAGGGUUGUUGGGUGUCGACGCACAGGC [NOX-D19001-D06]” bind (human C5a (Homo sapiens); dA at 6, reduced or lost binding vs parent, amine-coupled for SPR, mirror-image nucleic acid, variant of NOX-D19001)?
Answer: binds more weakly

Question: Does “GCCUGAUGUGGUGGUGAAGGGUUGUUGGGUGUCGACGCACAGGC [NOX-D19001-D23]” bind (human C5a (Homo sapiens); dU at 23, unchanged vs parent, 37 C, amine coupled to CM5 chip, synthetic backbone, mirror-image nucleic acid)?
Answer: binds

Question: Does “GCCUGAUGUGGUGGUGAAGGGUUGUUGGGUGUCGACGCACAGGC [NOX-D19001-D26]” bind (human C5a (Homo sapiens); dU at 26, unchanged vs parent, 37 C, amine coupled to CM5 chip, synthetic backbone, mirror-image nucleic acid)?
Answer: binds

Question: Does “GCCUGAUGUGGUGGUGAAGGGUUGUUGGGUGUCGACGCACAGGC [NOX-D19001-D14]” bind (human C5a (Homo sapiens); 2'-deoxy at 14, reduced or lost vs parent, 37 C, amine coupled to CM5 chip, synthetic backbone, mirror-image nucleic acid)?
Answer: binds more weakly

Question: Does “GCCUGAUGUGGUGGUGAAGGGUUGUUGGGUGUCGACGCACAGGC [NOX-D19001-D40]” bind (human C5a (Homo sapiens); dC at 40, improved vs parent, amine-coupled for SPR, mirror-image nucleic acid, variant of NOX-D19001)?
Answer: binds

Question: Does “GCCUGAUGUGGUGGUGAAGGGUUGUUGGGUGUCGACGCACAGGC [NOX-D19001-D07-16-17-30-32-40]” bind (human C5a (Homo sapiens); dU at 7, 30, 32, dG at 16, dA at 17, dC at 40, partly restored relative to D07-30, amine-coupled for SPR, mirror-image nucleic acid, variant of NOX-D19001)?
Answer: binds more weakly

Question: Does “GCCUGAUGUGGUGGUGAAGGGUUGUUGGGUGUCGACGCACAGGC [NOX-D19001-D05]” bind (human C5a (Homo sapiens); dG at 5, reduced or lost binding vs parent, amine-coupled for SPR, mirror-image nucleic acid, variant of NOX-D19001)?
Answer: binds more weakly

Question: Does “GCCUGAUGUGGUGGUGAAGGGUUGUUGGGUGUCGACGCACAGGC [NOX-D19001-D21]” bind (human C5a (Homo sapiens); 2'-deoxy at 21, reduced or lost vs parent, 37 C, amine coupled to CM5 chip, synthetic backbone, mirror-image nucleic acid)?
Answer: binds more weakly

Question: Does “GCCUGAUGUGGUGGUGAAGGGUUGUUGGGUGUCGACGCACAGGC [NOX-D19001-D30-32]” bind (human C5a (Homo sapiens); dU at 30, 32, better than single substitutions, amine-coupled for SPR, mirror-image nucleic acid, variant of NOX-D19001)?
Answer: binds

Question: Does “GCCUGAUGUGGUGGUGAAGGGUUGUUGGGUGUCGACGCACAGGC [NOX-D19001-D41]” bind (human C5a (Homo sapiens); 2'-deoxy at 41, reduced or lost vs parent, 37 C, amine coupled to CM5 chip, synthetic backbone, mirror-image nucleic acid)?
Answer: binds more weakly

Question: Does “GCCUGAUGUGGUGGUGAAGGGUUGUUGGGUGUCGACGCACAGGC [NOX-D19001-D02]” bind (human C5a (Homo sapiens); 2'-deoxy at 2, improved vs parent, 37 C, amine coupled to CM5 chip, synthetic backbone, mirror-image nucleic …)?
Answer: binds

Question: Does “GCCUGAUGUGGUGGUGAAGGGUUGUUGGGUGUCGACGCACAGGC [NOX-D19001-D20]” bind (human C5a (Homo sapiens); 2'-deoxy at 20, reduced or lost vs parent, 37 C, amine coupled to CM5 chip, synthetic backbone, mirror-image nucleic acid)?
Answer: binds more weakly

Question: Does “GCCUGAUGUGGUGGUGAAGGGUUGUUGGGUGUCGACGCACAGGC [NOX-D19001-D42]” bind (human C5a (Homo sapiens); 2'-deoxy at 42, improved vs parent, 37 C, amine coupled to CM5 chip, synthetic backbone, mirror-image nucleic …)?
Answer: binds

Question: Does “GCCUGAUGUGGUGGUGAAGGGUUGUUGGGUGUCGACGCACAGGC [NOX-D19001-D09-32]” bind (human C5a (Homo sapiens); dU at 9, 32, better than single substitutions, amine-coupled for SPR, mirror-image nucleic acid, variant of NOX-D19001)?
Answer: binds

Question: Does “GCCUGAUGUGGUGGUGAAGGGUUGUUGGGUGUCGACGCACAGGC [NOX-D19001-D33]” bind (human C5a (Homo sapiens); 2'-deoxy at 33, reduced or lost vs parent, 37 C, amine coupled to CM5 chip, synthetic backbone, mirror-image nucleic acid)?
Answer: binds more weakly

Question: Does “GCCUGAUGUGGUGGUGAAGGGUUGUUGGGUGUCGACGCACAGGC [NOX-D19001-D36]” bind (human C5a (Homo sapiens); 2'-deoxy at 36, reduced or lost vs parent, 37 C, amine coupled to CM5 chip, synthetic backbone, mirror-image nucleic acid)?
Answer: binds more weakly

Question: Does “GCCUGAUGUGGUGGUGAAGGGUUGUUGGGUGUCGACGCACAGGC [NOX-D19001-D09-30]” bind (human C5a (Homo sapiens); dU at 9, 30, better than single substitutions, amine-coupled for SPR, mirror-image nucleic acid, variant of NOX-D19001)?
Answer: binds

Question: Does “GCCUGAUGUGGUGGUGAAGGGUUGUUGGGUGUCGACGCACAGGC [NOX-D19001-D32]” bind (human C5a (Homo sapiens); dU at 32, improved vs parent, amine-coupled for SPR, mirror-image nucleic acid, variant of NOX-D19001)?
Answer: binds

Question: Does “GCCUGAUGUGGUGGUGAAGGGUUGUUGGGUGUCGACGCACAGGC [NOX-D19001-D07-30]” bind (human C5a (Homo sapiens); dU at 7, 30, reduced by dU at 7, amine-coupled for SPR, mirror-image nucleic acid, variant of NOX-D19001)?
Answer: binds more weakly

Question: Does “GCCUGAUGUGGUGGUGAAGGGUUGUUGGGUGUCGACGCACAGGC [NOX-D19001-D27]” bind (human C5a (Homo sapiens); 2'-deoxy at 27, reduced or lost vs parent, 37 C, amine coupled to CM5 chip, synthetic backbone, mirror-image nucleic acid)?
Answer: binds more weakly

Question: Does “CAGACGUGUGUGGGTAGAUGCACCUGCGAUUCGCUAAAAAGUGCCACACGUCUG [NOX-G11-D15]” bind ([1]; L-RNA, dT at 15, improved vs parent, 37 C, synthetic backbone)?
Answer: binds

Question: Does “CAGACGUGUGUGGGUAGAUGCACCUGCGAUUCGCUAAAAAGUGCCACACGUCUG [NOX-G11-D49]” bind ([1]; L-RNA, dC at 49, reduced or lost binding vs parent, variant of NOX-G11stabi2)?
Answer: binds more weakly

Question: Does “CAGACGUGUGUGGGUAGAUGCACCUGCGAUUCGCUAAAAAGUGCCACACGUCUG [NOX-G11-D45]” bind ([1]; L-RNA, 2'-deoxy at 45, unchanged vs parent, 37 C, synthetic backbone)?
Answer: binds

Question: Does “CAGACGUGUGUGGGUAGAUGCACCUGCGAUUCGCUAAAAAGUGCCACACGUCUG [NOX-G11-D23]” bind ([1]; L-RNA, 2'-deoxy at 23, improved vs parent, 37 C, synthetic backbone)?
Answer: binds

Question: Does “ACTCGAGAGGAAAGGTTGGTAAAGGTTCGGTTGGATTCACTCGAGT [259-H6-002-R30]” bind ([1]; L-DNA, rG at 30, variant of 259-H6-002)?
Answer: binds

Question: Does “CAGACGUGTGUGGGUAGAUGCACCUGCGAUUCGCUAAAAAGUGCCACACGUCUG [NOX-G11-D09]” bind ([1]; L-RNA, dT at 9, improved vs parent, 37 C, synthetic backbone)?
Answer: binds
